In publication doi:10.1101/2020.08.18.255471:
No constants are given. Whether binding was seen depends on the method and setting. Binding seen in cells or lysates may run through a third protein. Here binding means that the protein was enriched with, or labelled near, the bait; the list need not be complete.

Target: T1, LMO2, mouse (mouse (endogenous in ES cell-derived Flk-1+ cells and PUER cells)) (UniProt P25801)
T1 sequence: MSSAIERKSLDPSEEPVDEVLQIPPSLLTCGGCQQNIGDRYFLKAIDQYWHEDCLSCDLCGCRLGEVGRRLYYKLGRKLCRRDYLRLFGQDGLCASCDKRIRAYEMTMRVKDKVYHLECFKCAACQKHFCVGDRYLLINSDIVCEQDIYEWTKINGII
Test: affinity purification with mass spectrometry

binding: binds
B1: PHF6, mouse (protein, UniProt Q9D4J7 1-364)
chain: MSSSIEQKKGSTRQRKCGFCKSNRDKECGQLLISENQKVAAHHKCMLFSSALVSSHSDNESLGGFSIEDVQKEIKRGTKLMCSLCHCPGATIGCDVKTCHRTYHYHCALHDKAQIREKPSQGIYMVYCRKHKKTAHNSEADLEESFNEHELEPSSPKTKKKSRKGRPRKTNLKGLPEDSRSTSSHGTDEMESSSYRDRSPHRSSPNDTRPKCGFCHVGEEENEARGKLHIFNAKKAAAHYKCMLFSSGTVQLTTTSRAEFGDFDIKTVLQEIKRGKRMKCTLCSQPGATIGCEIKACVKTYHYHCGVQDKAKYIENMSRGIYKLYCKNHSGNDERDEEDEERESKSRGRVAIDQQLTQQQLNGN
